In PMC11297042:
No constants are given. Whether binding was seen depends on the method and setting. In cells and extracts the contact can be indirect. Some entries that bind do so weakly or less than the wild type.

Amino acid sequences for entries named in this document (tags omitted).
UniProt O60479: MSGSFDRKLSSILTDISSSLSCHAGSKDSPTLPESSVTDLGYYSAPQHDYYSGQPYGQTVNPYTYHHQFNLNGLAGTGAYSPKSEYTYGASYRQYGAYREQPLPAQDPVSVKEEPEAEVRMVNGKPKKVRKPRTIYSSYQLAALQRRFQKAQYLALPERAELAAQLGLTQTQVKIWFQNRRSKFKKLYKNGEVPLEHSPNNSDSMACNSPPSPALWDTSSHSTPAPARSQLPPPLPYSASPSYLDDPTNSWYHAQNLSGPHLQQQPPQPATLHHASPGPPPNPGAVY
UniProt O15021: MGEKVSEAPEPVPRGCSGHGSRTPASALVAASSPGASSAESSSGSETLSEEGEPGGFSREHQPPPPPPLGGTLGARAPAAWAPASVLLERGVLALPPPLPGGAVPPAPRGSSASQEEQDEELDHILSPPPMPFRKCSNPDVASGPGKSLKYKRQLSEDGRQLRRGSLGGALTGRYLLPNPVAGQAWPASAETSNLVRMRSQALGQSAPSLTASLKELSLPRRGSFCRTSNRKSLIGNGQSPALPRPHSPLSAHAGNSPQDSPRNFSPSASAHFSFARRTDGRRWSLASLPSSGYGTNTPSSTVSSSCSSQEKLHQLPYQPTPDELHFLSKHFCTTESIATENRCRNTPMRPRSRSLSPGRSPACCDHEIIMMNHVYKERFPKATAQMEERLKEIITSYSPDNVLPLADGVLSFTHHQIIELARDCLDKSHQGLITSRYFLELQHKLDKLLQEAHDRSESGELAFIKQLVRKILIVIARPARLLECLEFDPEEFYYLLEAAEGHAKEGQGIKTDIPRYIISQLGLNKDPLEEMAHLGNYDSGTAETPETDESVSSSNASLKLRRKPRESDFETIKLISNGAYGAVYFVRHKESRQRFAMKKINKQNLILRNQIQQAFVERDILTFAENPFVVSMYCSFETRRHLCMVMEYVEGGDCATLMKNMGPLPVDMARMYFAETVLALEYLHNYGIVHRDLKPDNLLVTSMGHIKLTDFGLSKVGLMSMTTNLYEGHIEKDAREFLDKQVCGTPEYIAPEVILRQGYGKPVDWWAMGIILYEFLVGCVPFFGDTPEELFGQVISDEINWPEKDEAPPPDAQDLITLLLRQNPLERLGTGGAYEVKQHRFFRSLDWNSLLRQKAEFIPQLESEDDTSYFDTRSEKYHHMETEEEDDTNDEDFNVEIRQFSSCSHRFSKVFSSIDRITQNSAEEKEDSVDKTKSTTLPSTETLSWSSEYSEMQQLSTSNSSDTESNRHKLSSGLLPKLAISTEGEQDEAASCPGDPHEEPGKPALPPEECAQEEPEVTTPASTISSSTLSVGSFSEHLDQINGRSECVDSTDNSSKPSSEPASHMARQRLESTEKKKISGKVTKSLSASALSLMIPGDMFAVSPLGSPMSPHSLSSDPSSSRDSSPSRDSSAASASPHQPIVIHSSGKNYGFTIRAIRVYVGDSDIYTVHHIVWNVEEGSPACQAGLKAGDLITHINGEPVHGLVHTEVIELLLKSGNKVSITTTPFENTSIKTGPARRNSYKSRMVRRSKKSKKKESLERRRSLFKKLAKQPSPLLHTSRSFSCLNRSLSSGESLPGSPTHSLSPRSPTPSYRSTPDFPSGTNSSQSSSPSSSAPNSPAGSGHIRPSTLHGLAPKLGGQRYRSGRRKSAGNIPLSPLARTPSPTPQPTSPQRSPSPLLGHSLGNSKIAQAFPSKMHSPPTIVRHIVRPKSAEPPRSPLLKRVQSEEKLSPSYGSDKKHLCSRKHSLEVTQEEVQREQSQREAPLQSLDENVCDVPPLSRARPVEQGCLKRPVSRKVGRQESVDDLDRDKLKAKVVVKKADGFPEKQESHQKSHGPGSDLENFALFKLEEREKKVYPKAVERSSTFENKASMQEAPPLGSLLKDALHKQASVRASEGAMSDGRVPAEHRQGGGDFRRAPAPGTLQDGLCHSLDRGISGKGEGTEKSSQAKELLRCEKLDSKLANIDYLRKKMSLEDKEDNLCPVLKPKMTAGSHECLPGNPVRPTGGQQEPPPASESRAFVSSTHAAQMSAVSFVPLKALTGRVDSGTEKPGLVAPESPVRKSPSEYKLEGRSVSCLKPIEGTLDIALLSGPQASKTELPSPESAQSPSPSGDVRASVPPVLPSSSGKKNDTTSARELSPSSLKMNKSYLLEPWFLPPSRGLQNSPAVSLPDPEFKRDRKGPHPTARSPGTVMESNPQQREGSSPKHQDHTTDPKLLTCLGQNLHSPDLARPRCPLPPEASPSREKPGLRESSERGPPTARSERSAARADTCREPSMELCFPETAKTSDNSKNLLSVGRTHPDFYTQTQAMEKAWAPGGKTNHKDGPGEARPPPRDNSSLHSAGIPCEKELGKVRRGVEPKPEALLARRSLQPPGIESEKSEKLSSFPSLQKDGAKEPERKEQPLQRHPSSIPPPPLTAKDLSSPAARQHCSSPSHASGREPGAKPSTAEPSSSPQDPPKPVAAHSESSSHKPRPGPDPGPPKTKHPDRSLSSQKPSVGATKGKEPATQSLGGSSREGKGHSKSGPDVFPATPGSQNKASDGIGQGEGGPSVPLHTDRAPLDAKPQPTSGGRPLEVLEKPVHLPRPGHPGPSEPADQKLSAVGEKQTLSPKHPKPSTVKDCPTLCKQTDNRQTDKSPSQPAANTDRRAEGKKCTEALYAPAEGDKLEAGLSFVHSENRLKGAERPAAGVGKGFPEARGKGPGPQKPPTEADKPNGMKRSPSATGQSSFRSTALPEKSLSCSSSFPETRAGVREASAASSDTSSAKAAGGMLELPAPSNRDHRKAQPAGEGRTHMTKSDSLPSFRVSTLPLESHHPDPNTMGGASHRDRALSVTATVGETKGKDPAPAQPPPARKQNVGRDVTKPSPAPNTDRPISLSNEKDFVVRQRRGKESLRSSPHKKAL

Target: Distal-Less Homeobox 3 (DLX3) (UniProt O60479)
Assay: co-IP; HEK293T cells transiently transfected (HA-MAST4 PDZ or HA-MAST4-Full with DLX3; HA-MAST4 PDZ cotransfected with Dlx3 deletion mutants), immunoprecipitation and western blotting; details in the Supplementary Information

binding: binds
Substance: HA-MAST4-Full (full-length MAST4) (from UniProt O15021 1-2623) (enzyme)
